Test system: CIA mice
Experiment: Collagen-induced arthritis (CIA) mice: ^99mTc-EC20 radioimaging, arthritis score and paw thickness under anti-inflammatory therapy
Experimental: Collagen-induced arthritis (CIA) was initiated using established methods on 6-7 week old female DBA/1 mice (Jackson Laboratories) maintained on folate-deficient diet (Harlan-Teklad). Briefly, mice were immunized at the base of the tail with 100 μg bovine type II collagen emulsified in complete Freund's adjuvant (Chondrex, Inc., Redmond, Wash., USA). Mice were then boosted 21 days later with a similar injection of 100 μg bovine type II collagen emulsified in incomplete Freund's adjuvant. After four days, onset of arthritis was synchronized in all mice with an intraperitoneal injection of 25 μg lipopolysaccharide (LPS) dissolved in saline. […] Arthritis scores were assessed every other day by researchers blinded to the various treatment groups, using the following scoring system: 0=normal; 1=mild, but definite redness and swelling of the ankle or wrist, or apparent redness and swelling limited to individual digits, regardless of the number of affected digits; 2=moderate redness and swelling of ankle or wrist; 3=severe redness and swelling of the entire paw including digits; 4=maximally inflamed limb with involvement of multiple joints. A total score for each mouse was calculated by summing the scores for each of the four paws, allowing a maximum possible score of 16 per animal. Paw thickness was measured with calipers every other day starting on the first day of treatment. […]

Structure (SMILES): COc1ccc2cc([C@H](C)C(=O)O)ccc2c1 [naproxen]
- uptake of ^99mTc-EC20 in the affected appendages relative to disease control (day 3 of therapy, 150 μCi ^99mTc-EC20 i.p., imaged after 4 h): no significant difference in uptake
- disease symptoms / joint inflammation (arthritis score, paw thickness) relative to disease control (day 11 of therapy): no significant difference
